PubChem BioAssay AID1259277, Sanger Institute | 2017
Assay: 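Follow-up of kinome hits for drug and siRNA synthetic lethality in colorectal cancer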 (follow-up of hits). Cells: LS123 human colorectal cancer cells. Reagents: single siRNA against human genes. Challenge: anchor drug BYL719 at 1 µM, cetuximab at 5 µg/ml or trametinib at 10 nM, or DMSO vehicle only, given one day after siRNA delivery. Measurement: 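Replicate-averaged viability normalised to non-targeting pool 2 siRNA, and a synergy score contrasting observed combination viability with single siRNA and single drug effects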. Direction: synergy score with trametinib: higher = stronger synergistic killing with trametinib; synergy score with BYL719: higher = stronger synergistic killing with BYL719; synergy score with cetuximab: higher = stronger synergistic killing with cetuximab. Call rule: 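Active if synergy exceeds 0.10 for any of the three drug combinations, otherwise inactive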. Meaning of the calls: active = synergy with at least one anchor drug; inactive = no synergy with any anchor drug.
The whole screen tested 160 reagents; below is a random part of them. Over the whole deposit, 48 (30%) were called active. 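Calls refer to individual siRNAs; confirming a gene required at least two siRNAs in multiple cell lines.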 A number with no mark means an inactive call. Not all columns of the deposit are shown. Not stated in the record: the amount of reagent, the time to read-out.

IRAK3 (interleukin 1 receptor associated kinase 3) [SID56476711] → synergy score with trametinib = 0.0737; synergy score with BYL719 = -0.186; synergy score with cetuximab = -0.0434
IRAK3 (interleukin 1 receptor associated kinase 3) [SID56476712] → synergy score with trametinib = 0.222 (active); synergy score with BYL719 = 0.0491; synergy score with cetuximab = 0.095
IRAK3 (interleukin 1 receptor associated kinase 3) [SID56476713] → synergy score with trametinib = -0.0842; synergy score with BYL719 = -0.232; synergy score with cetuximab = -0.181
IRAK3 (interleukin 1 receptor associated kinase 3) [SID56476714] → synergy score with trametinib = 0.0995; synergy score with BYL719 = -0.0308; synergy score with cetuximab = -0.0152

Continued, starting with the last 2 of the part before.
IRAK3 (interleukin 1 receptor associated kinase 3) [SID56476713] → synergy score with trametinib = -0.0842; synergy score with BYL719 = -0.232; synergy score with cetuximab = -0.181
IRAK3 (interleukin 1 receptor associated kinase 3) [SID56476714] → synergy score with trametinib = 0.0995; synergy score with BYL719 = -0.0308; synergy score with cetuximab = -0.0152
CHD4 (chromodomain helicase DNA binding protein 4) [SID134247681] → synergy score with trametinib = -0.123; synergy score with BYL719 = -0.0573; synergy score with cetuximab = -0.171
CHD4 (chromodomain helicase DNA binding protein 4) [SID134247682] → synergy score with trametinib = 0.0908 (active); synergy score with BYL719 = -0.0247; synergy score with cetuximab = 0.102
CHD4 (chromodomain helicase DNA binding protein 4) [SID134247683] → synergy score with trametinib = 0.212 (active); synergy score with BYL719 = 0.0452; synergy score with cetuximab = 0.0751
CHD4 (chromodomain helicase DNA binding protein 4) [SID134247684] → synergy score with trametinib = 0.147 (active); synergy score with BYL719 = -0.0505; synergy score with cetuximab = 0.0812
SYNCRIP (synaptotagmin binding cytoplasmic RNA interacting protein) [SID134270601] → synergy score with trametinib = 0.0308; synergy score with BYL719 = -0.117; synergy score with cetuximab = -0.0366
SYNCRIP (synaptotagmin binding cytoplasmic RNA interacting protein) [SID134270602] → synergy score with trametinib = -0.0191; synergy score with BYL719 = -0.312; synergy score with cetuximab = -0.118
SYNCRIP (synaptotagmin binding cytoplasmic RNA interacting protein) [SID134270603] → synergy score with trametinib = 0.0534; synergy score with BYL719 = 0.0153; synergy score with cetuximab = 0.0592
SYNCRIP (synaptotagmin binding cytoplasmic RNA interacting protein) [SID134270604] → synergy score with trametinib = -0.176; synergy score with BYL719 = -0.132; synergy score with cetuximab = -0.134
